Measurements reported in PubChem BioAssay AID1053208 (Peter MacCallum Cancer Centre, 2014)
The deposit covers about 17,000 reagents; this is an unselected part. Over the whole deposit, 788 (4.7%) got an active call. 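Calls rest on z-score classes alone; an extra cut-off of viability at most 70% of control was not applied to them.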 Further read-outs or replicates are left out here.

Screen: 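Synthetic lethal interactions between gene loss and doxorubicin in osteosarcoma cells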 (primary screen)
Cells: mouse osteosarcoma cells, early-passage culture from an engineered mouse model of fibroblastic bone tumour
Knock-down reagent: siRNA pool against mouse genes, 40 nM
Duration: about 120 h (48 h before drug, then 72 h with drug)
Treatment: doxorubicin 100 nM for 72 h, roughly 30-40% inhibitory dose
Read-out: 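Luminescent ATP signal taken as viability with or without 100 nM doxorubicin for 72 h; mean of two wells set against non-targeting siRNA and turned into robust z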
Direction: viability z-score with doxorubicin: higher = more viable cells under doxorubicin; viability z-score without drug: higher = more viable cells with knock-down alone
Active means: 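Called active if knock-down leaves viability unchanged without drug (z within -2 to 2) but lowers it with doxorubicin (z at or under -2)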

{"Gene":"Or10a3","PubChem SID":"SID152299397","combined z-score class":"no change with or without drug","viability z-score with doxorubicin":-1.01,"viability z-score without drug":-0.84,"Outcome":"inactive"}
{"Gene":"Gss","PubChem SID":"SID152265588","combined z-score class":"no change with or without drug","viability z-score with doxorubicin":0.9,"viability z-score without drug":0.34,"Outcome":"inactive"}
{"Gene":"Tyrobp","PubChem SID":"SID152334206","combined z-score class":"low cell count with doxorubicin only","viability z-score with doxorubicin":-2.02,"viability z-score without drug":-0.84,"Outcome":"active"}
{"Gene":"Tomm70a","PubChem SID":"SID152313248","combined z-score class":"no change with or without drug","viability z-score with doxorubicin":0.11,"viability z-score without drug":0.51,"Outcome":"inactive"}
{"Gene":"Ftcd","PubChem SID":"SID152298345","combined z-score class":"no change with or without drug","viability z-score with doxorubicin":0,"viability z-score without drug":1.01,"Outcome":"inactive"}
{"Gene":"Or5t7","PubChem SID":"SID152266754","combined z-score class":"no change with or without drug","viability z-score with doxorubicin":-1.12,"viability z-score without drug":-0.34,"Outcome":"inactive"}
{"Gene":"Higd1b","PubChem SID":"SID152322400","combined z-score class":"low cell count with doxorubicin only","viability z-score with doxorubicin":-2.36,"viability z-score without drug":0,"Outcome":"active"}

Entries above called active (2):
{"Gene":"Tyrobp","PubChem SID":"SID152334206","combined z-score class":"low cell count with doxorubicin only","viability z-score with doxorubicin":-2.02,"viability z-score without drug":-0.84,"Outcome":"active"}
{"Gene":"Higd1b","PubChem SID":"SID152322400","combined z-score class":"low cell count with doxorubicin only","viability z-score with doxorubicin":-2.36,"viability z-score without drug":0,"Outcome":"active"}

Additional records:
{"Gene":"Ankrd9","PubChem SID":"SID152278721","combined z-score class":"no change with or without drug","viability z-score with doxorubicin":0.11,"viability z-score without drug":1.18,"Outcome":"inactive"}
{"Gene":"Lmbrd1","PubChem SID":"SID152260561","combined z-score class":"high cell count without drug only","viability z-score with doxorubicin":1.57,"viability z-score without drug":2.36,"Outcome":"inactive"}
{"Gene":"Prdx4","PubChem SID":"SID152310071","combined z-score class":"no change with or without drug","viability z-score with doxorubicin":1.35,"viability z-score without drug":0.17,"Outcome":"inactive"}
{"Gene":"Or13c7c","PubChem SID":"SID152286154","combined z-score class":"no change with or without drug","viability z-score with doxorubicin":1.35,"viability z-score without drug":0.17,"Outcome":"inactive"}
{"Gene":"Or2a54","PubChem SID":"SID152342931","combined z-score class":"low cell count without drug only","viability z-score with doxorubicin":-1.12,"viability z-score without drug":-2.02,"Outcome":"inactive"}
